According to US6022696A, “Methods of identifying agonists or antagonists of angiotensin IV” (Washington State University Research Foundation, priority 1998, dated 2000):
The structures given here were assigned with low confidence; some may be wrong.

System: rat kidney
Test: Renal cortical blood flow (laser doppler) after infusion into the renal artery
Assay type: in vivo
Conditions: 100 pmol/min where stated

## CC[C@H](C)[C@H](NC(=O)[C@@H](N)Cc1ccc(O)cc1)C(=O)N[C@@H](Cc1c[nH]cn1)C(=O)N1CCC[C@H]1C(=O)N[C@@H](Cc1ccccc1)C(=O)O
  change in renal cortical blood flow, in words: no effect on renal blood flow
